Measurements as given in patent US8034781B2, “Angiotensin-(1-7) and angiotensin-(1-7) agonists for inhibition of cancer cell growth” (Wake Forest University Health Sciences, priority 2002, dated 2011).
Where “and” joins values, the source holds several entries; their conditions need not be identical. Equal values may be shown once. Read-outs that look alike come from different tables or passages of the source. At least one peptide structure holds a part that was inferred or is arguable (an end, a ring closure or a residue).

Tests used:
[1] = tested on: vascular smooth muscle cells (VSMCs); format: cell-based, Sprague-Dawley rats; settings: for incorporation of 3H-thymidine in response to mitogen: 48 hr treatment with 1 μM Ang-(1-7)
Description: (§1) Vascular smooth muscle cells were isolated form 12-14 week old Sprague-Dawley rats by explant culture (Freeman, E. J. et al., Hypertension, 1996, 28:104-108). Human lung and breast cancer cell lines were obtained from American Type Tissue Culture (ATTC) and included cells of the SK-LU-1 and A549 cell lines (both of which are derived from adenocarcinomas) as well as SK-MES-1 cells (derived from non-small cell lung tumors) and ZR-75-1 breast cancer cells.
(§2) Cells were grown in DMEM with 10% fetal bovine serum (FBS), […] in a humidified 37° C. incubator gassed with 5% CO2 and 95% room air. Cells were grown to subconfluence in either 24-well cluster plates or 100 mm dishes and made quiescent by treatment for 48 h with serum-depleted growth media, prior to the experiments outlined below to measure cell growth (^3H-thymidine incorporation), cell signaling or apoptosis.
(§3) To measure ^3H-thymidine incorporation, quiescent cells were incubated with serum and angiotensin peptides for 24 h at 37° C. ^3H-thymidine (0.25 μCi/well) was added and the cells incubated for an additional 4 h to incorporate the radiolabeled nucleotide. Subsequently, the cell monolayer was washed with cold phosphate-buffered saline (PBS; 50 mM NaPO4, 120 mM NaCl, pH=7.2). The adherent cells were precipitated with cold 10% TCA (4° C. for 30 min) and dissolved in 0.2% SDS in 0.1 N NaOH. Incorporated ^3H-thymidine was determined by liquid scintillation spectrometry, as previously described (Freeman, E. J. et al., Hypertension, 1996, 28:104-108). Growth inhibition was defined as a reduction in the amount of ^3H-thymidine incorporation as compared to the mitogen-stimulated controls.
During an additional 4 h, cell monolayers were pulsed with ^3H-thymidine (0.25 μCi/well) and harvested.

[2] = tested on: vascular smooth muscle cells (VSMCs); assay: Total cell number of VSMCs by Coulter counter; format: cell-based, Sprague-Dawley rats; settings: serum-stimulated (1% serum) cells treated with 1 μM
Description: Total cell number in response to treatment with Ang-(1-7) was also determined using a Coulter counter. The number of cells per well increased to 142% of basal following treatment with 1% serum.

[3] = tested on: vascular growth stimulated by balloon catheter injury to the rat carotid artery; assay: Balloon catheter injury to the rat carotid artery, intravenous minipump infusion; format: in vivo
Source text: In these same animals, the cross-sectional area of the neointima was reduced to 0.09±0.01 mm^2 as compared to 0.12±0.02 mm^2 in saline-treated controls (p<0.05).

[4] = tested on: SK-LU-1 lung cancer cells; format: cell-based, human
A549 lung cancer cells = assay: Serum-stimulated 3H-thymidine incorporation into A549 cells; format: cell-based, human; settings: 1% FBS, daily addition of 100 nM
[5] = tested on: SK-MES-1 lung cancer cells; format: cell-based, human; settings: 1% FBS, daily addition of 100 nM
[6] = tested on: ZR-75-1 breast cancer cells; format: cell-based, human
Description: as §1, §2, §3

[7] = tested on: ZR-75-1 breast cancer cell line tumors; assay: ZR-75-1 breast tumor growth in athymic mice; format: in vivo; settings: 24 μg/kg/hr continuous infusion for 28 days
[8] = tested on: prostacyclin (PGI2) release from VSMCs; assay: Prostacyclin release from VSMCs measured as 6-keto-PGF1α; format: cell-based, Sprague-Dawley rat; settings: 100 nM
cellular levels of cAMP = assay: Cellular cAMP levels in VSMCs; format: cell-based, Sprague-Dawley rats; settings: 1 μM, in the presence of 1 mM IBMX
ERK1 [9] = assay: ERK1 phosphorylation in VSMCs, phospho-specific antibodies; format: cell-based, rat
Description: (§4) Reactions were terminated with Triton lysis buffer (50 mM Tris-HCl, pH 7.4, 1% Triton X-100, 100 mM NaCl, 5 mM EDTA, 50 mM NaF, 0.6 μM leupeptin, 0.01 mM Na3VO4 and 0.1 mM PMSF) and protein concentrations determined (Lowry, O. H., et al., J. Biol. Chem., 1951, 193:265-275). Proteins were separated by SDS polyacrylamide gel electrophoresis and transferred to polyvinyl membranes. The activation and autophosphorylation of ERK1 and ERK2 was determined using antibodies specific for the phosphorylated kinases (using antibodies from Cell Signaling Technologies). The immunoreactive product were visualized by enhanced chemiluminescence (ECL, Amersham) and quantified by densitometry, using the MCID image analysis system. The phospho-MAP kinase antibodies only recognize the catalytically activated and phosphorylated forms of MAP kinase (both ERK1 and ERK2 MAP kinase). The blots were also probed with antibodies to ERK1/2, to control for protein loading.
(§5) The activity of the MAP kinases ERK1 and ERK2 in VSMCs was measured using phospho-specific antibodies that only recognize the activated protein kinases.

ERK2 [10] = assay: ERK2 phosphorylation in VSMCs, phospho-specific antibodies; format: cell-based, rat
Description: as §4, §5

ERK1 [11] = assay: Serum-stimulated ERK1 activity in SK-LU-1 cells; format: cell-based, human; settings: SK-LU-1, 1% FBS, increasing concentrations
ERK2 [12] = assay: Serum-stimulated ERK2 activity in SK-LU-1 cells; format: cell-based, human; settings: SK-LU-1, 1% FBS, increasing concentrations
[13] = tested on: SK-LU-1 lung cancer cells; assay: Gene array hybridization of SK-LU-1 cells (Human Cancer 1.2 Atlas cDNA Expression Array); format: cell-based; settings: 1% serum, 100 nM Ang-(1-7)
[14] = tested on: MAP kinase kinase 5 (MEK5); assay: MEK5 expression in SK-LU-1 cells by RT-PCR and Western analysis; format: cell-based, human; settings: 1% serum, 10 nM Ang-(1-7), 4 and 8 h
[15] = tested on: caspase-3 cleavage product poly(ADP-ribose) polymerase (PARP); assay: Apoptosis as cleaved PARP in serum-stimulated SK-LU-1 cells; format: cell-based, human; settings: 10 nM Ang-(1-7), 4 to 8 hour treatment
AT1 angiotensin receptor = settings: cited from earlier work
[16] = 1% FBS, daily addition of 100 nM
[17] = VSMCs, peptide alone up to 1 μM

CC[C@H](C)[C@H](NC(=O)[C@H](Cc1ccc(O)cc1)NC(=O)[C@@H](NC(=O)[C@H](CCCNC(=N)N)NC(=O)[C@@H](N)CC(=O)O)C(C)C)C(=O)N[C@@H](Cc1c[nH]cn1)C(=O)N1CCC[C@H]1C(=O)O [Ang-(1-7), Asp-Arg-Val-Tyr-Ile-His-Pro]
incorporation of 3H-thymidine in response to mitogen ([1]; 10 ng/mL PDGF): 84.3 % of mitogen-stimulated activity | incorporation of 3H-thymidine in response to mitogen ([1]; 100 nM Ang II): 75.8 % of mitogen-stimulated activity | maximal inhibition ([1]; 1 μM, in the presence or absence of FBS): approximately 60 % of control | incorporation of 3H-thymidine in response to mitogen ([1]; 1% FBS): 66.4 % of mitogen-stimulated activity | serum-stimulated 3H-thymidine incorporation ([1]; Ang-(1-7) in the absence of indomethacin): 79.1±5.1 % of total | number of cells per well [2]: 109 % of basal | neointimal area ([3]; Ang-(1-7) infusion 24 μg/kg/h, 12 days): 0.066±0.012 mm^2 | medial area of the injured or the contralateral uninjured artery ([3]; Ang-(1-7) infusion vs saline controls): no effect | time dependence of 3H-thymidine incorporation [4, 16]: progressively reduced | effect on serum-stimulated 3H-thymidine incorporation ([4]; SK-LU-1, peptide at 1 or 100 nM (FIG. 8)): reduced | time dependence of 3H-thymidine incorporation (A549 lung cancer cells): progressively reduced | time dependence of 3H-thymidine incorporation [5]: progressively reduced | time dependence of 3H-thymidine incorporation [6, 16]: progressively reduced | maximal inhibition ([6]; ZR-75-1): 37.2±6.1 | inhibition of PDGF-stimulated 3H-thymidine incorporation ([6]; ZR-75-1, 2.5 ng/mL PDGF, 28-h treatment): at least 50% | inhibition of EGF-stimulated 3H-thymidine incorporation ([6]; ZR-75-1, 100 ng/ml EGF, 28-h treatment): at least 50% | reduction in tumor volume as compared to tumor size prior to treatment [7]: ~40% | maximal release of prostacyclin above basal release [8]: 177.9±25.2 % above basal release | cellular levels of cAMP (cellular levels of cAMP): 131.9±9.7 % of basal | decrease of PDGF-stimulated ERK1 activity (ERK1 [9]; 1 μM Ang-(1-7), 10 ng/mL PDGF): ~50% and 43.6±8.6% | reduction of Ang II-stimulated ERK1 activation (ERK1 [9]; 1 μM Ang-(1-7), 100 nM Ang II): 42.3±6.2% | effect on ERK1 phosphorylation (ERK1 [9]; [17]): no effect | decrease of PDGF-stimulated ERK2 activity (ERK2 [10]; 1 μM Ang-(1-7), 10 ng/mL PDGF): ~50% and 38.7±11.4% | reduction of Ang II-stimulated ERK2 activation (ERK2 [10]; 1 μM Ang-(1-7), 100 nM Ang II): 41.2±4.2% | effect on ERK2 phosphorylation (ERK2 [10]; [17]): no effect | serum-stimulated ERK1 activity (ERK1 [11]): dose-dependent decrease | serum-stimulated ERK2 activity (ERK2 [12]): dose-dependent decrease | expression of genes involved in tumor suppression, apoptosis, and cell cycle inhibition (p16INK4a, menin, BAD, BAK, apoptotic protease activating factor 1) [13]: upregulated | expression of oncogenes, protein kinase and cell cycle progression genes (MEK5, ERK1, p21/K-ras 2B) [13]: downregulated | MEK5 mRNA [14]: reduced | MEK5 protein [14]: reduced | amount of cleaved PARP [15]: increase | IC50 levels at the AT1 angiotensin receptor (AT1 angiotensin receptor): micromolar range
